Measured values as given in patent US4556673A, “Use of phthalyltaurine sulfonamide derivatives in treating epilepsy and arrythmia” (priority 1980, dated 1985).
At least one read-out could not be matched to a standard name with certainty.

System: perfused Langendorff's rat heart
Test: Arrhythmia induced by K+ deficiency in perfused Langendorff's rat heart
Conditions: 10^-4 M

CC(C)NS(=O)(=O)CCN1C(=O)c2ccccc2C1=O [2-Phthalimidoethanesulfone isopropylamide]
Development of arrhythmia. Percentage change in time: -10,1%
